The record followed here is PMC7819943, “Rice protein-binding microarrays: a tool to detect cis-acting elements near promoter regions in rice”.

Amino acid sequences for entries named in this document (tags omitted).
UniProt Q0JBA9, entry or part of it: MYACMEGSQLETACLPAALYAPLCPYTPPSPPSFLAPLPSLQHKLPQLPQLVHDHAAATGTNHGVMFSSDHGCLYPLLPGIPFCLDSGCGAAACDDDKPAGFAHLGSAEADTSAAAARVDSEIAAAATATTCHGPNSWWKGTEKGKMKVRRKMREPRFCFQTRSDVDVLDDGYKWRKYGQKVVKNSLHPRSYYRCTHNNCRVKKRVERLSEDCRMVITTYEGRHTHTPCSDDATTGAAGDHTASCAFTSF

This is one part of the list.

For this assay, the target named is OsWRKY34 (Oryza sativa, UniProt Q0JBA9 1-250). The assay can be described thus: protein-binding microarray (RPBM); PBS, 2% BSA, 51.3 ng/ul salmon testes DNA, 50 uM zinc acetate, 200 nM TF, 25 C, 1 h; high values mean tight binding. The settings on record: protein: recombinant; tags: N-terminal polyhistidine and DsRed monomer fusion (pET32a); label: CyDye5-dUTP incorporated in the synthesized complementary strand; 3' TTTTT single-stranded linker to array surface; dsDNA, one strand shown. Put shortly:
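An Axon 4000B scanner gave the binding signal as per-feature fluorescence intensity in arbitrary units. This followed washing of a custom Agilent array that had been incubated for 1 h at 25 °C with 200 nM protein in PBS, 2% BSA, salmon testes DNA and 50 µM zinc acetate. The proteins were transcription factors fused at the N-terminus to polyhistidine and DsRed, expressed in E. coli BL21-CodonPlus and purified on Ni–NTA.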
Regarding “AGATGTTTTGACTTTAGTCAAAGTCAAACTGCTTTAAGTTCGGAGTCACCTAGTGCAG”, the binding signal was 11800 fluorescence intensity (a.u.).

Regarding “CTGCTCTCTCTCTCTCTTACGCTTTTGACCAACCGCTCCGCGGAGTCACCTAGTGCAG”, the binding signal is 12000 fluorescence intensity (a.u.).

For “GGAGAGAATCGGATTTAACAAACGGGGCTTTTAACTATTTCGGAGTCACCTAGTGCAG”, the binding signal was 9100 fluorescence intensity (a.u.).

On to “ACAGTGCCATATATACTACTATTTTTTTTATCACGCATATCGGAGTCACCTAGTGCAG”, for which the binding signal was 8720 fluorescence intensity (a.u.).

With “TATTTTTTTCACATAGTGTTTGTTCTCCTACAGTCTCATCCGGAGTCACCTAGTGCAG”, the binding signal was 9660 fluorescence intensity (a.u.).

On to “AAGCATCAATCCATTGCTTTTCTCACTGCACACCTGATTCCGGAGTCACCTAGTGCAG”, for which the binding signal is 10300 fluorescence intensity (a.u.).

Consider “ATTAAGGTTTAGCTCCTCTGTATCTGGCAACATCGCCATGCGGAGTCACCTAGTGCAG”, for which the binding signal was 8040 fluorescence intensity (a.u.).

Consider “GTTGAGCACAGATATTTGTTGGTGGCCTTGATCCCAGTGTCGGAGTCACCTAGTGCAG”, for which the binding signal was 10000 fluorescence intensity (a.u.).

As for “TTCATCACCTCACATCACATCCAAAACTTTCCTACTCACACGGAGTCACCTAGTGCAG”, the binding signal was 8920 fluorescence intensity (a.u.).

As for “GCGGCGGAATTCGATCGCGGTTTGGTTTGGTTTGGTTTGACGGAGTCACCTAGTGCAG”, the binding signal is 14900 fluorescence intensity (a.u.).

Regarding “ACTCACATAAACTTCCAATTTTTCTGTCACATCGTTCCAACGGAGTCACCTAGTGCAG”, the binding signal is 10600 fluorescence intensity (a.u.).

As for “ACCATGAATCGAATCCAGACAAGTTTTTTATGCATATTTACGGAGTCACCTAGTGCAG”, the binding signal is 9430 fluorescence intensity (a.u.).

As to “TGGTTTTGGATGAATTTAGTTTGATTTCTTTACAAAATTCCGGAGTCACCTAGTGCAG”, the binding signal is 8270 fluorescence intensity (a.u.).

On to “CTTGTGCTCTCTCCTCATTTTTCAGGCGTTTCGAATTATTCGGAGTCACCTAGTGCAG”, for which the binding signal was 8420 fluorescence intensity (a.u.).

For “TGTGTCATCTTGTCTATGGTAGTTCAGCAATCCTCTGCTTCGGAGTCACCTAGTGCAG”, the binding signal was 8890 fluorescence intensity (a.u.).

Turning to “ATTCCCCATCACCTTCACTGGTCACTGTTTCTATCACAAGCGGAGTCACCTAGTGCAG”, the binding signal is 8550 fluorescence intensity (a.u.).

Consider “GAGCCCAACATCGCCAACTACTGGCAGAGCTCTTTTGATGCGGAGTCACCTAGTGCAG”, for which the binding signal was 8320 fluorescence intensity (a.u.).

Take “ATGATTTTCTGTGTCCAACTTTGATCATCTGTCTTATTTACGGAGTCACCTAGTGCAG”: the binding signal is 10600 fluorescence intensity (a.u.).

On to “TATCTATGTAGCCTTTGTTTTCACCTCCATTAGCTATTTACGGAGTCACCTAGTGCAG”, for which the binding signal is 8080 fluorescence intensity (a.u.).

For “TCCTCCTCATCATCGCCTCGTGCTCCTCTCGAACCTTCCACGGAGTCACCTAGTGCAG”, the binding signal was 8040 fluorescence intensity (a.u.).

As for “AACGTTTGACTGTTCGTTTTATTTAATTTTTTTATGATTACGGAGTCACCTAGTGCAG”, the binding signal was 11700 fluorescence intensity (a.u.).

Take “AGATTTTTTTATCCCTACTTTTCCTTGATTTTTTTAATTTCGGAGTCACCTAGTGCAG”: the binding signal is 8520 fluorescence intensity (a.u.).

On to “GGTCCATCACTCCAAGGTCAGTGCTTTTTTATTTACTCTACGGAGTCACCTAGTGCAG”, for which the binding signal is 14600 fluorescence intensity (a.u.).

Turning to “CTTGGCGTCTTACATCCTTTCTTTCGTTGGCATATTTGTTCGGAGTCACCTAGTGCAG”, the binding signal is 12500 fluorescence intensity (a.u.).

Consider “GCAGCTTCACACTCCCACTCCCACTTCTCTCTCTACAATCCGGAGTCACCTAGTGCAG”, for which the binding signal is 8350 fluorescence intensity (a.u.).

With “TTGCTGCTTCTTTCTCAATTATTTCTCCTGTTCCTCTTCTCGGAGTCACCTAGTGCAG”, the binding signal was 10300 fluorescence intensity (a.u.).

On to “GTGAGACTTCTCTTTCCCGGGAGCGCCAGAACTCCTCTCACGGAGTCACCTAGTGCAG”, for which the binding signal is 8160 fluorescence intensity (a.u.).

“GGGTCATGAATTAGATTGGTCACTTTTGAGGGTCCTGAAGCGGAGTCACCTAGTGCAG”: the binding signal was 10700 fluorescence intensity (a.u.).

Consider “TATTCTATGCATTTGCATGTTCCTTGTTTCTTTGTGGAAGCGGAGTCACCTAGTGCAG”, for which the binding signal is 8840 fluorescence intensity (a.u.).

For the sequence “CATAGATCATGTATTGTTTGGTTAACTTTTGGTAGTTGCACGGAGTCACCTAGTGCAG”, the binding signal was 8870 fluorescence intensity (a.u.).

For “ACCGACATACAATTTCATATTCGCGTGTTTTATCATTACACGGAGTCACCTAGTGCAG”, the binding signal is 8880 fluorescence intensity (a.u.).

Regarding “ACCCACCACAACCAGTGATCAGACACCACCTACCGCGCGCCGGAGTCACCTAGTGCAG”, the binding signal is 8330 fluorescence intensity (a.u.).

For the sequence “ACGAAGTTCCTGCTTTTATGTTGTTCTTTTTTAGGTCTTGCGGAGTCACCTAGTGCAG”, the binding signal is 8380 fluorescence intensity (a.u.).

As to “ATTTTTTCACGTTCGGACCTATGGTTTTTTTGCCACTTTGCGGAGTCACCTAGTGCAG”, the binding signal is 8520 fluorescence intensity (a.u.).

For “CACCCGGTCCAACCCTTTGCTTTTGCCACTCTATAAATACCGGAGTCACCTAGTGCAG”, the binding signal is 11100 fluorescence intensity (a.u.).

As to “CTGCAAGAGATACACCTATGTTAGCCACGTCTTTTCTGTTCGGAGTCACCTAGTGCAG”, the binding signal was 8560 fluorescence intensity (a.u.).

In the case of “CGCCACCCATCTCCATCTTCGCCCACGCACCCGCACGGTCCGGAGTCACCTAGTGCAG”, the binding signal is 8880 fluorescence intensity (a.u.).

With “TGTGTTTGCTTGTCTCAGTTGTGTTCTTAACTGACTTCCCCGGAGTCACCTAGTGCAG”, the binding signal is 9240 fluorescence intensity (a.u.).

With “TCCTCTATTGTTTTCTCGATTCTTCGCAGGGAAGGGGATACGGAGTCACCTAGTGCAG”, the binding signal was 8230 fluorescence intensity (a.u.).

For “AATGAACTTCCAGCTTTGCCACATTCCTTTGGCTTGAAAACGGAGTCACCTAGTGCAG”, the binding signal is 8300 fluorescence intensity (a.u.).

On to “GCACAAACTTCGTACTTTAACTCCTACGGTTTTATTTTTTCGGAGTCACCTAGTGCAG”, for which the binding signal is 11000 fluorescence intensity (a.u.).

In the case of “TGGGGTTCTTGTTTTTCTTTTCCGGGATCTTTGGGTGATGCGGAGTCACCTAGTGCAG”, the binding signal is 15900 fluorescence intensity (a.u.).

Take “TCCAATCAAACGCGTTTTTTCTGTGTTTTGCAATCGTCTGCGGAGTCACCTAGTGCAG”: the binding signal is 10700 fluorescence intensity (a.u.).

Turning to “GTCAGGTCTGCTTCCGCCCGCTGAGCTTCACGCCGTCCTCCGGAGTCACCTAGTGCAG”, the binding signal was 10800 fluorescence intensity (a.u.).

Consider “GACGCCGTTGACTTTTTATCACATATTTGACCGTTCGTCTCGGAGTCACCTAGTGCAG”, for which the binding signal is 20400 fluorescence intensity (a.u.).

Consider “TATTCATGTTTTTATGGACGTTAGCAACATTATCACAAAACGGAGTCACCTAGTGCAG”, for which the binding signal was 8030 fluorescence intensity (a.u.).

Regarding “ATGTTCGTTGACTTAAGTTCGCGCCAATACATATCCAGCACGGAGTCACCTAGTGCAG”, the binding signal is 12000 fluorescence intensity (a.u.).

As for “CGTATGCCGCGCGCCCACTGTATAAATAGGCCGCATGTTCCGGAGTCACCTAGTGCAG”, the binding signal was 9680 fluorescence intensity (a.u.).

In the case of “ACGGTTATAGGGGTGGCTAGGATTGAACCAACATAAATTGCGGAGTCACCTAGTGCAG”, the binding signal was 8280 fluorescence intensity (a.u.).

As to “TCACTTCGGCTTCGCTTCCATGGCGATCACCGCGGCCACCCGGAGTCACCTAGTGCAG”, the binding signal is 8680 fluorescence intensity (a.u.).

On to “GTCATTTCCAGAACTAGTCATGTCCTTCGATCTGCTTGTTCGGAGTCACCTAGTGCAG”, for which the binding signal was 8230 fluorescence intensity (a.u.).

Turning to “CCCACGGTTTCCACGTCGCGTGTGCATCTGCAACTCATCTCGGAGTCACCTAGTGCAG”, the binding signal was 9770 fluorescence intensity (a.u.).

For the sequence “CAAAACTCTCTTGTCGTCCTCAAACCATTACCTGGCATAGCGGAGTCACCTAGTGCAG”, the binding signal is 8290 fluorescence intensity (a.u.).

As to “ATCATGTTTTTTATACTTTAATGTACACACGAACTATATACGGAGTCACCTAGTGCAG”, the binding signal is 8470 fluorescence intensity (a.u.).
